# Laboratory results taken from PubChem BioAssay AID2517 (National Center for Advancing Translational Sciences (NCATS), 2010).
# By UniProt entry, the sequences of proteins in these tests, tags left out.
# UniProt P27695, whole entry, looked up: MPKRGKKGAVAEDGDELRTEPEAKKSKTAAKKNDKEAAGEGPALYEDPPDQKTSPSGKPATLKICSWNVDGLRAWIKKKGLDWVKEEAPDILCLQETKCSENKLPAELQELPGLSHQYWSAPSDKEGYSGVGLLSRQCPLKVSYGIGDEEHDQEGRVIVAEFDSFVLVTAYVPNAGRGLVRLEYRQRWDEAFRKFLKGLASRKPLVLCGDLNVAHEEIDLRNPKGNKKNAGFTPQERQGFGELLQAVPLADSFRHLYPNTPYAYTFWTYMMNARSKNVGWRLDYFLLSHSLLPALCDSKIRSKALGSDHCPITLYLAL
# The campaign covered roughly 350,000 compounds. About 1,200 (0.34%) were called active. The inconclusive results got no clear call from the source; some entries with a clear call stand among them for comparison. The call rests on the fitted dose curve; in most records, active means well fitted inhibition curve with a large enough effect; inconclusive means small, poorly fitted or top-dose-only effect; inactive means no such curve, though single readings can be large or run the other way. A potency beside an inconclusive call is a rough fit, not a confirmed value.
# Biological target: DNA repair nuclease/redox regulator APEX1 (Homo sapiens) (UniProt P27695)
# Test: qHTS Assay for Inhibitors of the Human Apurinic/apyrimidinic Endonuclease 1 (APE1); further: nearly all actives have a fitted effect of over 55% in size;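 on activity change, negative = inhibition: plate controls were vehicle for no effect and reference inhibitor for full effect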
# Conditions: recombinant APE1, TAMRA/BHQ-2 abasic DNA cleavage fluorescence; activity change, negative = inhibition: at 65.8 µM (top of the series)
# How it was run: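 Substrate: short duplex with […] THF abasic site, 5'-TAMRA and 3'-BHQ-2, 50 nM final. APE1 at 0.75 nM, preincubated 15 min RT with compound. Fluorescence increase from first to third read measured activity.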
# Potency means the concentration at half of the fitted maximal effect.
SMILES,Potency,"activity change, negative = inhibition"
NC(=O)CC[C@@H]1NC(=O)C(Cc2ccc(O)cc2)NC(=O)c2cc([N+](=O)[O-])cc(F)c2NCCC[C@@H](C(N)=O)NC1=O (some centres not stated),"inconclusive: 3.98 µM [inhibitor, single point]",–
CCC(=O)NCCCC[C@H](NC(=O)OCc1ccccc1)C(=O)Nc1ccc2c(C)cc(=O)oc2c1,inactive,–
c1ccc(-c2nc(-n3ccnc3)nc(-n3ccnc3)n2)cc1,inactive,–
FC(F)(F)c1ccc(-n2cn[nH]c2=S)cc1,"inconclusive: 2.24 µM [inhibitor, full curve]",–
O=C(CSc1ccc(-c2ccco2)nn1)NC1CCCC1,"inconclusive: 14.1 µM [inhibitor, partial curve]",–
O=C(CN1C(=O)S/C(=C\C=C\c2ccccc2)C1=O)Nc1ccc(C(=O)O)cc1,inactive,–
COc1ccccc1-c1nc(NCc2cccs2)c2ccccc2n1,"inconclusive: 39.8 µM [inhibitor, single point]",–
CC(=O)c1cccc(NC(=O)N2CCC(c3ccc(C)cc3)C2)c1 (configuration not stated),"inconclusive: 20 µM [inhibitor, single point]",–
CN(CCO)c1cc(N2CCC3(CC2)OCCO3)c2nonc2c1[N+](=O)[O-],"inconclusive: 22.4 µM [inhibitor, partial curve, poor fit]",–
CCCCN(C(=O)c1cc(S(=O)(=O)N2CCCCCC2)ccc1OC)c1ccccc1,inactive,–
COc1ccc(-c2cc(C(=O)OCC(=O)N3CCOCC3)c3ccccc3n2)cc1,inactive,–
Cc1nn(Cc2ccc(C(=O)Nc3ccc(C(=O)OC(C)C)cc3)o2)c(C)c1Cl,inactive,–
CCOC(=O)c1sc(NC(=O)c2ccccc2)cc1C,"inconclusive: 28.2 µM [inhibitor, single point]",–
Cc1c(C(=O)Nc2ccccc2)oc2c1C(=O)CC(C)(C)C2,"inconclusive: 0.141 µM [inhibitor, full curve, poor fit]",–
c1cncc(-c2cc(-n3ccnc3)ncn2)c1,inactive,–
O=C(O)/C=C/C(=O)Nc1ccc(OC(F)(F)F)cc1Br,"inconclusive: 1.78 µM [inhibitor, partial curve]",–
O=C(Cc1cccs1)Nc1nnc(SCc2cccc3ccccc23)s1,inactive,–
Oc1ccc(/C=C\c2cc(O)cc(O)c2)cc1,"inconclusive: 31.6 µM [inhibitor, partial curve]",–
Cc1cc(O)ccc1Nc1nc2ccccc2nc1Nc1ccc(O)cc1C,inactive,–
Cc1nn(-c2cccc(Cl)c2)c2nc(-c3ccco3)cc(C(=O)O)c12,inactive,–
Cc1nc(-c2ccccc2)c(-c2ccccc2)[nH]1,"inconclusive: 50.1 µM [inhibitor, partial curve, poor fit]",–
COc1cc(CNc2ccc3[nH]c(=O)[nH]c3c2)ccc1OCC(=O)NC(C)(C)C,"inconclusive: 35.5 µM [inhibitor, single point]",–
CC(C)CN(C(=O)COC(=O)c1cc2c(s1)CCC2)C1CCS(=O)(=O)C1 (configuration not stated),active: 12.6 µM,–

SMILES,Potency,"activity change, negative = inhibition"
COc1cccc(-c2nc(NCCNC(C)=O)c3ccccc3n2)c1,"inconclusive: 44.7 µM [inhibitor, single point]",–
Cc1ccc(-n2nnnc2SCC(=O)c2cc(C)n(-c3cc(C)on3)c2C)cc1,"inconclusive: 25.1 µM [inhibitor, single point]",–
CCN(CC)C(=O)CSc1nnc(-c2ccc(O)cc2)n1CC1CCCO1 (configuration not stated),inactive,–
CC(=O)Cc1cc(=O)c2c(C)cc(O)c(C3OC(CO)C(O)C(O)C3O)c2o1 (configuration not stated),"inconclusive: 50.1 µM [inhibitor, partial curve, poor fit]",–
COc1c(-c2coc3cc4c(cc3c2=O)CC(O)C(C)(C)O4)ccc2c1C=CC(C)(C)O2 (configuration not stated),inactive,–
NC(N)=NS(=O)(=O)c1ccc(N=C2C(=O)Nc3ccccc32)cc1,"inconclusive: 10 µM [inhibitor, single point]",–
O=C(Nc1ccc2c(c1)C(=O)OC2)c1ccc(F)cc1F,"inconclusive: 0.0501 µM [inhibitor, full curve, poor fit]",–
COc1ccc(CCNc2nc(-c3ccc(F)cc3)c(CC(=O)O)s2)cc1OC,–,inactive: 48.9% [at 12.4 µM]
COCCCNC(=S)NC(=O)c1ccc(C)cc1,"inconclusive: 39.8 µM [inhibitor, single point]",–
COc1ccc(S(=O)(=O)N2CCOCC2)cc1NC(=O)Cc1ccc2c(c1)OCCO2,–,inconclusive: -11.5% [inhibitor]
CN(C(=O)COC(=O)CNC(=O)c1sc2ccccc2c1Cl)c1ccccc1,"inconclusive: 0.316 µM [inhibitor, full curve, poor fit]",–
CCOC(=O)c1[nH]c(COC(=O)C2CC(=O)N(Cc3ccccc3)C2)c(C(=O)OCC)c1C (configuration not stated),"inconclusive: 56.2 µM [inhibitor, partial curve, poor fit]",–
O=c1cc(N2CCc3ccccc32)[nH]c(=O)n1Cc1ccc(F)cc1,"inconclusive: 3.98 µM [inhibitor, single point]",–
C/C(=N\NC(=O)c1cc2ccccc2cc1O)c1ccc(C)o1,inactive,–
COc1ccc(NS(=O)(=O)c2ccc(NC(=S)NCC3CCCO3)cc2)cc1 (configuration not stated),inactive,–
O=C(O)CCCNC(=O)CC1S/C(=N/N=C/c2ccccc2O)NC1=O (configuration not stated),"inconclusive: 17.8 µM [inhibitor, partial curve, poor fit]",–
Fc1cccc(F)c1-n1c(CN2CCOCC2)csc1=S,"inconclusive: 35.5 µM [inhibitor, partial curve]",–
CCNC(=O)Cn1cc(C(F)(F)F)cc(Cl)c1=O,"inconclusive: 1.78 µM [inhibitor, full curve, poor fit]",–
O=C(CCc1nnc2ccc(NCc3ccco3)nn12)N1CCN(c2ccccc2)CC1,inactive,–
CCCc1nc2c(=O)n(C)c(=O)nc-2n(C)n1,"inconclusive: 3.98 µM [inhibitor, full curve, poor fit]",–
O=C(/C=C/c1ccc(O)c(O)c1)c1ccc(S(=O)(=O)N2CCCCCC2)cc1,"inconclusive: 12.6 µM [inhibitor, partial curve]",–
CCCNCC1COc2ccccc2O1 (configuration not stated),"inconclusive: 25.1 µM [inhibitor, single point]",–
CC[C@H](C)[C@H](NC(=O)CNC(=O)[C@H](CCCNC(=N)N)NC(=O)CNC(=O)[C@@H](NC(=O)[C@H](Cc1ccc(O)cc1)NC(=O)[C@H](Cc1c[nH]c2ccccc12)NC(=O)[C@H](C)NC(=O)[C@@H]1CCCN1C(=O)[C@H](CC(N)=O)NC(=O)[C@@H](NC(=O)[C@H](CC(=O)O)NC(=O)[C@@H]1CCCN1C(=O)[C@@H](N)[C@@H](C)O)[C@@H](C)CC)[C@@H](C)O)C(=O)N[C@@H](CCCNC(=N)N)C(=O)N1CCC[C@H]1C(=O)N[C@H](C(=O)NCC(=O)N[C@@H](CCCNC(=N)N)C(=O)N[C@@H](Cc1ccccc1)C(N)=O)C(C)C,inactive,–

SMILES,Potency,"activity change, negative = inhibition"
Cc1onc(-c2c(F)cccc2Cl)c1C(=O)N1CCSCC1,"inconclusive: 5.01 µM [inhibitor, full curve, poor fit]",–
Cc1nc(NCCO)c2nc(-c3ccccc3)n(CCN(C)C)c2n1,"inconclusive: 28.2 µM [inhibitor, partial curve]",–
O=C(O)c1cc(-c2ccco2)nn1-c1ccc(Cl)cc1,"inconclusive: 28.2 µM [inhibitor, partial curve]",–
O=C(C1CCCCC1)N(Cc1nc2sc3c(c2c(=O)[nH]1)CCCC3)Cc1cccs1,inactive,–
CCOC(=O)c1c(C)[nH]c(C2=NNC(=NC3CC3)SC2)c1C,inactive,–
Cc1occc1C(=O)NNS(=O)(=O)c1ccc(Cl)cc1,"inconclusive: 0.158 µM [inhibitor, full curve]",–
O=C(O)CC(C(=O)O)C(CC(=O)O)C(=O)O (configuration not stated),inactive,–
CCOC(=O)C1CC(C)=C(C)CC1C(=O)O (configuration not stated),"inconclusive: 3.16 µM [inhibitor, single point]",–
COc1ccc(/C=N/N=C2/NC(=O)C(CC(=O)O)S2)cc1OCc1ccccc1Cl (configuration not stated),"inconclusive: 31.6 µM [inhibitor, single point]",–
CC(O)CNc1ccc([N+](=O)[O-])cc1S(=O)(=O)N1CCOCC1 (configuration not stated),"inconclusive: 0.178 µM [inhibitor, full curve, poor fit]",–
CN=C(NC#N)SCC(=O)c1ccc(Cl)cc1Cl,"inconclusive: 35.5 µM [inhibitor, single point]",–
O=c1c(-c2ccccc2)nc2cncnc2n1Cc1ccccc1Cl,inactive,–
Cc1ccc(CNc2cnn(C34CC5CC(CC(C5)C3)C4)c(=O)c2Cl)cc1,"inconclusive: 3.55 µM [inhibitor, single point]",–
N#Cc1c(/N=C/c2ccco2)sc2c1CCC2,"inconclusive: 39.8 µM [inhibitor, partial curve]",–
CCCC(=O)Nc1ccc(C(=O)NCC(=O)OCC)cc1,"inconclusive: 39.8 µM [inhibitor, single point]",–
O=C(CCc1ccccc1)NCC1OCCc2ccccc21 (configuration not stated),"inconclusive: 25.1 µM [inhibitor, single point]",–
Cc1ccc(-c2cc(C(=O)NCc3ccco3)c3ccccc3n2)o1,active: 31.6 µM,–
CN1CCCN(S(=O)(=O)c2ccc(Cl)c(Cl)c2)CC1,"inconclusive: 25.1 µM [inhibitor, partial curve]",–
CCOC(=O)c1cc(-c2ccc(N)cc2)sc1N,inactive,–
CCc1nnc(SCC(=O)Nc2ccccc2Cl)nc1CC,"inconclusive: 0.0794 µM [inhibitor, full curve, poor fit]",–
CCCCN1C(=O)C(=O)NC[C@@H]1C(C)CC (some centres not stated),"inconclusive: 35.5 µM [inhibitor, single point]",–

# As entered above:
# Potency with `O=C(O)c1cc(-c2ccco2)nn1-c1ccc(Cl)cc1` is entered as inconclusive: 28.2 µM [inhibitor, partial curve]
# Potency with `CC(O)CNc1ccc([N+](=O)[O-])cc1S(=O)(=O)N1CCOCC1` (configuration not stated) is entered as inconclusive: 0.178 µM [inhibitor, full curve, poor fit]
# activity change, negative = inhibition with `COc1ccc(S(=O)(=O)N2CCOCC2)cc1NC(=O)Cc1ccc2c(c1)OCCO2` is entered as inconclusive: -11.5% [inhibitor]
# Potency with `CCCNCC1COc2ccccc2O1` (configuration not stated) is entered as inconclusive: 25.1 µM [inhibitor, single point]
